{"source": "patent US20250134867A1", "about": "“METHOD FOR MODULATING LIPID METABOLISM, AMELIORATING NON-ALCOHOLIC FATTY LIVER DISEASE AND METABOLIC SYNDROME BY USING 6-METHOXYBENZOXAZOLINONE” (Taichung District Agricultural Research and Extension …, priority 2023, published 2025)", "test_system": "HFD-induced obese C57BL/6J mice", "assay": "Body weight gain, food intake and food efficiency ratio in HFD-induced obese mice", "type": "in vivo", "details": "12 weeks, compared to the HFD group", "source_text": "To determine the effect of CX (Sigma, Inc., USA) on obesity and non-alcoholic fatty liver disease (NAFLD) in vivo, we established an experimental approach using HFD-induced obese C57BL/6J mice. CX was suspended in 0.5% methylcellulose solution for oral administration. The animals used in the examples are described below. 5-week-old male C57BL/6J mice were purchased from The National Laboratory Animal Center, Taipei, Taiwan and were maintained in a temperature-controlled room on a 12-h light-dark cycle. They were housed with four per cage and had free access to food and drinking water. Mice fed with a standard diet and adapted to the environment for 1 week were subsequently divided randomly into five groups. The ND group (n=8) continued on the same diet, whereas the other four groups (n=8 per group) were switched to the HFD (494 kcal/100 g, 45% energy as fat; TestDiet Inc., USA). Among the four HFD groups, three groups started to receive CX at 10 mg/kg/day (CX10 group), CX at 30 mg/kg/day (CX30 group), and epigallocatechin gallate (EGCG) (Sigma, Inc., USA) at 30 mg/kg/day (EGCG30 group) by oral gavage. EGCG was suspended in 0.5% methylcellulose solution for oral administration. Food consumption and weight gain were measured daily and weekly, respectively. After 12 weeks, all mice were sacrificed. […]", "data": [{"smiles": "COc1ccc2[nH]c(=O)oc2c1", "note": "[CX, 6-methoxybenzoxazolinone]", "values": [{"measurement": "food intake", "setting": "10 mg/kg/day oral gavage", "result": "almost equal food intake"}, {"measurement": "food intake", "setting": "30 mg/kg/day oral gavage", "result": "almost equal food intake"}]}]}
